# Results: article PMC7295792
# Sequences of proteins named here, by UniProt entry; tags and fusion partners are left off.
# UniProt P21999, whole entry: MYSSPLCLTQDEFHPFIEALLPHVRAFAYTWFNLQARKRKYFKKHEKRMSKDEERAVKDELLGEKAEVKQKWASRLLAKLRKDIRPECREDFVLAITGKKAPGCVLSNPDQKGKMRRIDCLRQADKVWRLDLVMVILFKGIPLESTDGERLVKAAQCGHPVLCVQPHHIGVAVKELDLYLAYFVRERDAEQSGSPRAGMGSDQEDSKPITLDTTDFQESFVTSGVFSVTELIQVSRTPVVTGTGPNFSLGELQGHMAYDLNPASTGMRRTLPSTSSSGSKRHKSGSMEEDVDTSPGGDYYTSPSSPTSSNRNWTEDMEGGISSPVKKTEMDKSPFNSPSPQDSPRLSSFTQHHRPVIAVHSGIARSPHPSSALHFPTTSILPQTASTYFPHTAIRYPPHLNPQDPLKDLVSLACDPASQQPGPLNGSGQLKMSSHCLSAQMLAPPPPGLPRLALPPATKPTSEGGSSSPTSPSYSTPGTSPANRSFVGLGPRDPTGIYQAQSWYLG
# What was measured:
# [1] = molecular target: NF1 (nuclear factor 1/C) (Sus scrofa (porcine)) (UniProt P21999); experiment: femtosecond UV laser crosslinking, western blot; conditions: 200 mM NaCl, crosslinking stated specific for wild type; NF1 binding buffer: 5 mM Tris-Cl pH 8.0, 90 mM NaCl (200 mM for EMSA and Fig. 2d), 0.5 mM EDTA, 5% glycerol, 0.55 mM beta-mercaptoethanol, 1 ug BSA; recombinant protein; protein details: 6xHis; label: 5'-biotin on both strands
# [2] = molecular target: NF1 (nuclear factor 1/C) (Sus scrofa (porcine)) (UniProt P21999); experiment: EMSA; conditions: 200 mM NaCl, minor binding, attributed to unspecific binding; NF1 binding buffer: 5 mM Tris-Cl pH 8.0, 90 mM NaCl (200 mM for EMSA and Fig. 2d), 0.5 mM EDTA, 5% glycerol, 0.55 mM beta-mercaptoethanol, 1 ug BSA; recombinant protein; protein details: 6xHis; label: 5'-biotin on both strands
sequence,measurement,setting,value
AAGTCCTTTTTTAGCGCTAAAGCGTAGTGGCTGATGAGG (double strand) [NF1 mutant oligo of Fig. 2d],binding result,[1],binds more weakly
AATTCCTTTTTTTGCGCTAAAGCGTAGTGGATAATGAGG (double strand) [NF1 mutant consensus oligo],binding result,[2],binds more weakly

# For at least one entry, the source does not settle the construct or the ends of the probe. The comparison behind a weaker result is the experiment's own reference, which may not be listed here.
